Assay results published in the supplement of paper PMC10849652.
Some of the results follow.

By UniProt entry, the sequences of proteins in these tests, tags left out. Where a name states a change or a piece, a line headed by the entry shows the natural chain unless it says otherwise.
UniProt Q9Y2X7: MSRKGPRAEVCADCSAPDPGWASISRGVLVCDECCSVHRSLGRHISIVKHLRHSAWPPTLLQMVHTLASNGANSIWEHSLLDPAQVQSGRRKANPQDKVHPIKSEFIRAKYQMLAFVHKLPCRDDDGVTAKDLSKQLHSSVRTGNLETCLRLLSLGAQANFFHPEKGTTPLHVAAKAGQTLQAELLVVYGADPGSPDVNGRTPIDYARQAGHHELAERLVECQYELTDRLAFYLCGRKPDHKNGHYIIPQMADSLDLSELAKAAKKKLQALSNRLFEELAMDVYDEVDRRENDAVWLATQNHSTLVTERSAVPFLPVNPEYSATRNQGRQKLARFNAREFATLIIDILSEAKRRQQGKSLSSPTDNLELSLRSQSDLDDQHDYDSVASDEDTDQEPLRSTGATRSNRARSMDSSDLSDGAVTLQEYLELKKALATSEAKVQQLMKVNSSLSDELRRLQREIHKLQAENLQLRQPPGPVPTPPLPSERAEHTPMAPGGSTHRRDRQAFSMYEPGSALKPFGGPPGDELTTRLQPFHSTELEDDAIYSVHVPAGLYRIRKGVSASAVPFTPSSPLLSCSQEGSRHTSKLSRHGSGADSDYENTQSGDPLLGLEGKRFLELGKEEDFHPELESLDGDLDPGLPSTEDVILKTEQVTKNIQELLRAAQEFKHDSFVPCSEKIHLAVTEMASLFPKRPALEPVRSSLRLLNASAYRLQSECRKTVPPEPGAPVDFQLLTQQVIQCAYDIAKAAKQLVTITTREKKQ
UniProt P00367: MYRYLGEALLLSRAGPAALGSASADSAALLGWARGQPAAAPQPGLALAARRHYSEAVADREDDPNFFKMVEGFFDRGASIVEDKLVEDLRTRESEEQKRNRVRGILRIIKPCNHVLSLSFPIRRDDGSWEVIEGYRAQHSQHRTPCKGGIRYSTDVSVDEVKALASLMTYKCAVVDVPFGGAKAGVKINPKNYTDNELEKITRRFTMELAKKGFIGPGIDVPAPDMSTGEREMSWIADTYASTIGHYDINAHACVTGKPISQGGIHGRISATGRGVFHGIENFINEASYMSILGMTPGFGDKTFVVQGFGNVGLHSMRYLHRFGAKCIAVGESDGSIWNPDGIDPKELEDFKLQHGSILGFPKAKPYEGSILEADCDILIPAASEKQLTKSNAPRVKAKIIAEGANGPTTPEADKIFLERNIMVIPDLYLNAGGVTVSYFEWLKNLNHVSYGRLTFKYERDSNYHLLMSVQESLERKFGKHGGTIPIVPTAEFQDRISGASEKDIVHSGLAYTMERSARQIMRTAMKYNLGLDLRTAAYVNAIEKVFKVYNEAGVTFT
UniProt Q13439: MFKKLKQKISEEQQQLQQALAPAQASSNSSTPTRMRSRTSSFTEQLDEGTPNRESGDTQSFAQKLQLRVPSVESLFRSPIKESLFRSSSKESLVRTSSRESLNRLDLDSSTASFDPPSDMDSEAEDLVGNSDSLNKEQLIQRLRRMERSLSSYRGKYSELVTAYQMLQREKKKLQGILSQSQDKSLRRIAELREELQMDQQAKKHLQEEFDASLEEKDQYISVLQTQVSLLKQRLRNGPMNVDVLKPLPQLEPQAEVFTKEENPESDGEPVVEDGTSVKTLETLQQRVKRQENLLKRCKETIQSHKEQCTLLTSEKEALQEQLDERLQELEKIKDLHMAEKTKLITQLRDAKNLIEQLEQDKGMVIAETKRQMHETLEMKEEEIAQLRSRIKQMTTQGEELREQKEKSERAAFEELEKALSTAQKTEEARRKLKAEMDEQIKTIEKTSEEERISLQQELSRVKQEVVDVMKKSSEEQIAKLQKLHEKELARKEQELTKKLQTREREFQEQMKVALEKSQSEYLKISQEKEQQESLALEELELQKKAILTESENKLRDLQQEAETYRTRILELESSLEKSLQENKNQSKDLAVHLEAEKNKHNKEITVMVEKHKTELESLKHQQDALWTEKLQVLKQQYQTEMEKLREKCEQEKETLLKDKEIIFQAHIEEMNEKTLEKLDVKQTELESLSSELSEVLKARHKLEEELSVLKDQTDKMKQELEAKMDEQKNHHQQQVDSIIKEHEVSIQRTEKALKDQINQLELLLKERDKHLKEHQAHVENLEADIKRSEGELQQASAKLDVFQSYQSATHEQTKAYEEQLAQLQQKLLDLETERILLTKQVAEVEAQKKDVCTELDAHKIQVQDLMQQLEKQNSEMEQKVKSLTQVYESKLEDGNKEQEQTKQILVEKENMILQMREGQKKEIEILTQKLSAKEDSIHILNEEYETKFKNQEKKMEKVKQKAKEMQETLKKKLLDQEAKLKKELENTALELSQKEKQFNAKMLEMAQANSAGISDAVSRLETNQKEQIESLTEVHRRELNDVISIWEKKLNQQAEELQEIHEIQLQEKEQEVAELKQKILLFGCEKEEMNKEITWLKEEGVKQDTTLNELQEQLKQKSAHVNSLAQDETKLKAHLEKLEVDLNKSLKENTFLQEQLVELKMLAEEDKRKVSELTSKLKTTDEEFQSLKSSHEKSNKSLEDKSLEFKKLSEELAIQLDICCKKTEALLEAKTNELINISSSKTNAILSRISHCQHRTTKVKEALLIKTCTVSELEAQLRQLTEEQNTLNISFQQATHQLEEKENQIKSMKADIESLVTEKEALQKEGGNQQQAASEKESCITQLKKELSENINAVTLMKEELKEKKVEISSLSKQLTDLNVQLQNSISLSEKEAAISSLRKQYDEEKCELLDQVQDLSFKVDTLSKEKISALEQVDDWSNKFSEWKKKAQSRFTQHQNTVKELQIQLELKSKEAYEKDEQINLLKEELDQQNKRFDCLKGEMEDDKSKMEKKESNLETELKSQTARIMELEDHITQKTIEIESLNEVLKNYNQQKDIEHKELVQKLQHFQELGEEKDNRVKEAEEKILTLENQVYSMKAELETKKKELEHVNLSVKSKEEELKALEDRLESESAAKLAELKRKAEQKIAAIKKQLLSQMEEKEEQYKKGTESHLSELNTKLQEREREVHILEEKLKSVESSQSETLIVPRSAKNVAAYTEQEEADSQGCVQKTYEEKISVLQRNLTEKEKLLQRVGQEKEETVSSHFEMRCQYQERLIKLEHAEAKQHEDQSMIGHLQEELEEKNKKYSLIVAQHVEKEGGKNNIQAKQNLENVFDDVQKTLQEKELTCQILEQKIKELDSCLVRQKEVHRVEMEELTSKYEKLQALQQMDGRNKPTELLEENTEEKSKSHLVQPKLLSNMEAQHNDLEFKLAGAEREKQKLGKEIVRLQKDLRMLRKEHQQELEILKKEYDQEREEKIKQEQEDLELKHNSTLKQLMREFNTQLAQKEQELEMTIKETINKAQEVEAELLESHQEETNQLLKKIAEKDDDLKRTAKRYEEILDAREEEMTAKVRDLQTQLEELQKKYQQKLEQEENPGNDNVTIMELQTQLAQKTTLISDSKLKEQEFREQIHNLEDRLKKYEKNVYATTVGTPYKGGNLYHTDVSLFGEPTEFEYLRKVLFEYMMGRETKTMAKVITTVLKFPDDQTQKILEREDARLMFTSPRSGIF
UniProt Q9NWQ4: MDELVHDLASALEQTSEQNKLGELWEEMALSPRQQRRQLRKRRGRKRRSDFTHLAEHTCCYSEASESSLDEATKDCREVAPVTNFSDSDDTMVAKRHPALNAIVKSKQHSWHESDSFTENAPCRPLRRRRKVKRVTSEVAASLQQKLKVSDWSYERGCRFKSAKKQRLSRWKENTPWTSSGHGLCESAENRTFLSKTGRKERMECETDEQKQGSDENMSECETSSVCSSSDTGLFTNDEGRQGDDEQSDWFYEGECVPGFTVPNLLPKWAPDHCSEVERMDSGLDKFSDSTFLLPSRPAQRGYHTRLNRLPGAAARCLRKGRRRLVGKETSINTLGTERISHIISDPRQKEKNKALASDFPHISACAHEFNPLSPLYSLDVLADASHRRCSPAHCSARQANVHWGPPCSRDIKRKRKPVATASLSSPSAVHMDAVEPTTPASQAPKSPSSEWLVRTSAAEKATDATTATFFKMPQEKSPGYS
UniProt Q6ZS86: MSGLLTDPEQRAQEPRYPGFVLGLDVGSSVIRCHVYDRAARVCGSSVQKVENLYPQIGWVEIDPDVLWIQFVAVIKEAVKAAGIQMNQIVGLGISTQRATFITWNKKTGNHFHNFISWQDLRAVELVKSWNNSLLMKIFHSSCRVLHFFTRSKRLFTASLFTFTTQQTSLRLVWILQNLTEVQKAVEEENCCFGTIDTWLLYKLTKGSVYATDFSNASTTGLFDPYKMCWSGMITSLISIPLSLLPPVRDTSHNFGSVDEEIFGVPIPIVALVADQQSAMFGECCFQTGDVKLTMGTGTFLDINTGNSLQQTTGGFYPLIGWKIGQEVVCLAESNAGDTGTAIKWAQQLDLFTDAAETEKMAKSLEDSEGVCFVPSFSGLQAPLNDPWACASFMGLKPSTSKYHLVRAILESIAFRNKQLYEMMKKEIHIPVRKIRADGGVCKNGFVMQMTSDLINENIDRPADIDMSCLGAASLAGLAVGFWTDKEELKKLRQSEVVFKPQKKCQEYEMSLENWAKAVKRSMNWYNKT
UniProt Q9NVN8: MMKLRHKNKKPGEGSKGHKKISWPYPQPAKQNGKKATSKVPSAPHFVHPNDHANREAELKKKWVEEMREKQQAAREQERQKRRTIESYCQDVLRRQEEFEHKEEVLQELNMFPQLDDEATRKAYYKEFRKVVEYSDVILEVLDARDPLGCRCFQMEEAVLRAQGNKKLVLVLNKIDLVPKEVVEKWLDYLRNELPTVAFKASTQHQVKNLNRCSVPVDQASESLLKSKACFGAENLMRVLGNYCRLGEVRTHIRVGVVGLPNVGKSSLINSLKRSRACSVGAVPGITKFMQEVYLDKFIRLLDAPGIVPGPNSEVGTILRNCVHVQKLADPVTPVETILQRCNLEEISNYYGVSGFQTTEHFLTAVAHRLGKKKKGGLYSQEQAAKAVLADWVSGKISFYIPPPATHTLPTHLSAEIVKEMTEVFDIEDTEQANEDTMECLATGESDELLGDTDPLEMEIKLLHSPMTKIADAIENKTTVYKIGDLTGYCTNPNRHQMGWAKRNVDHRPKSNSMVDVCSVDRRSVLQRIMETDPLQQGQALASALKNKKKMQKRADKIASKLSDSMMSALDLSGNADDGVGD
UniProt P50148, whole entry, looked up: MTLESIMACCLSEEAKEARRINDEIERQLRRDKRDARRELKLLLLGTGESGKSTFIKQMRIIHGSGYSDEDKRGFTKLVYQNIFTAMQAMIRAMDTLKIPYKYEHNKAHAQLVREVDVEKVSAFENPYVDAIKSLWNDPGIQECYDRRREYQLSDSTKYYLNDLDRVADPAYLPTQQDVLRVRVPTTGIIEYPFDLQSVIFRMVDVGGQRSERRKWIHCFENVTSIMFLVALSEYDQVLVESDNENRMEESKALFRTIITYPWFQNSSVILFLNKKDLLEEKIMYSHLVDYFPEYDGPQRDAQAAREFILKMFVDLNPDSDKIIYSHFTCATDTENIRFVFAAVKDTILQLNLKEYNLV
UniProt Q86SX6: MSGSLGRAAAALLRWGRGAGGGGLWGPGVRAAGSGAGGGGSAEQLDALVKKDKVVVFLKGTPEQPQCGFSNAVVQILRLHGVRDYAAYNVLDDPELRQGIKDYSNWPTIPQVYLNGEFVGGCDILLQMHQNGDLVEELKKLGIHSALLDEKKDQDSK
UniProt Q8N954: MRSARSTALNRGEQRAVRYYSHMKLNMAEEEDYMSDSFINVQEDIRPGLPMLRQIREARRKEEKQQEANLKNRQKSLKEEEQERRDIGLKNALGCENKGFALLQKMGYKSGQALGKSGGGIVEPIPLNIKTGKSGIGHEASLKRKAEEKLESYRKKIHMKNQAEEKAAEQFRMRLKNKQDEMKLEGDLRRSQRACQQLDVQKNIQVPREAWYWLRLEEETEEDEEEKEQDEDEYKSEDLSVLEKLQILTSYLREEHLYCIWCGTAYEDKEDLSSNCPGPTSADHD
UniProt O75496: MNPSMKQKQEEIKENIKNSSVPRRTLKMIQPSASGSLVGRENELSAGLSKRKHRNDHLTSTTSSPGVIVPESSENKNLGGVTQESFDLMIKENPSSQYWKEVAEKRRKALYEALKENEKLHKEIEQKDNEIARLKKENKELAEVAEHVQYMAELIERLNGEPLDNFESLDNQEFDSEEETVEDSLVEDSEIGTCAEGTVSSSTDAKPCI
UniProt P63092, whole entry, looked up: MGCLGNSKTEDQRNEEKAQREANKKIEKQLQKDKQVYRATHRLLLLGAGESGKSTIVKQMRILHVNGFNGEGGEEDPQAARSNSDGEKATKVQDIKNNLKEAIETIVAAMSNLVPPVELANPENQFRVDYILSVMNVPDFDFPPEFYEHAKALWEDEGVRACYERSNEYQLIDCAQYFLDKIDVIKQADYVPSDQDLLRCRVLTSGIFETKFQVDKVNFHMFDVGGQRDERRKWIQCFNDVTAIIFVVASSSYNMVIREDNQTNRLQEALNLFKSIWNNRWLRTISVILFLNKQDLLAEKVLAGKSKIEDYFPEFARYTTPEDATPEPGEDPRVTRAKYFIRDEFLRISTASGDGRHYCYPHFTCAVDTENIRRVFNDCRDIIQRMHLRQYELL

compound: NC(=O)Nc1cc(-c2cccc(F)c2)sc1C(=O)N[C@H]1CCCNC1; test: log2 fold change, soluble protein after heating vs DMSO (PISA); higher = thermal stabilisation; K562 lysate, 10 uM; active = over 0.2 and 3.5 SD of the protein, either way, in both replicates (recomputed)
In short: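 Log-two fold change in thermal stability relative to solvent controls is reported from duplicates. For each sample, crude K562 extract from dounce-homogenised pellets in PBS pH 7.4 with 1 mM MgCl2, at 1 mg/mL protein, was treated with 10 μM compound for 30 min. Aliquots heated for 3 min across 48°C-58°C were pooled, brought to 0.5% NP-40 at 4°C and cleared at 21,000xg for 90 min. The supernatant was quantified by TMTpro 16plex LC-MS/MS with channel sums equalised.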

log2 fold change, inactive:
GGACT (UniProt Q9BVM4) -0.172, GPSM1 (UniProt Q86YR5) 0.006, GMEB1 isoform 2 (UniProt Q9Y692) 0.03, GOLIM4 (UniProt F8W785) -0.098, GIT1 (UniProt Q9Y2X7) 0.035, GGH (UniProt Q92820) 0.015, GLUD1 (UniProt P00367) -0.032, GOLGA4 (UniProt Q13439) 0.022, GPATCH2L (UniProt Q9NWQ4) -0.214, GMPR2 isoform 2 (UniProt Q9P2T1) -0.024, GPLD1 (UniProt P80108) 0.153, GNPTAB (UniProt Q3T906) -0.025, GK5 (UniProt Q6ZS86) -0.071, GLRX (UniProt P35754) -0.028, GNL3L (UniProt Q9NVN8) 0.037, GNAQ (UniProt P50148) -0.059, GLTP (UniProt Q9NZD2) 0, GPR180 (UniProt Q86V85) -0.017, GLRX5 (UniProt Q86SX6) -0.089, GPATCH11 (UniProt Q8N954) 0.012, GMNN (UniProt O75496) 0.017, GM2A (UniProt P17900) -0.033, GNAS isoform 3 (UniProt P63092) 0.058
